Measured values reported in patent publication US8815900B2, “Compounds and compositions for reducing lipid levels” (CVI Pharmaceuticals Limited, priority 2007, dated 2014).

System: Wister male rats under a high fat and high cholesterol diet
Test: Lipid lowering and body weight effects of (14R,13S)-CRDL hydrochloride salt in Wister rats
Format: in vivo
Settings: vs control group
Description: Male Wister rats were used as another animal model to examine the in vivo effects of (14R,13S)-CRDL in plasma lipid levels.
In one experiment, 18 Wister male rats under a high fat and high cholesterol diet were divided into 2 groups. One group was given (14R,13S)-CRDL hydrochloride salt orally at a daily dose of 75 mg/kg by an orogastric tube for 4 weeks, and the control group received daily treatment of equal amount of vehicle (0.1 M sodium phosphate, pH 3.5). Serum lipid levels were measured weekly.
At the end of treatment, Rats were sacrificed and blood and sera were collected to measure several critical parameters for liver function and kidney function. […] Kidney function and blood glucose level were not changed by the treatment (FIG. 11E).
The food intake and body weight gains were measured every week during the 4-week treatment period. […] In the first week, the amount of food consumed was decreased in CRDL-treated group. […] The ability of CRDL to activate AMPK signaling pathway to increase energy expenditure and to reduce fat accumulation likely contributes to this weight reducing effect.

With `COc1cc2c(cc1OC)[C@H]1[C@@H](C)c3ccc(OC)c(OC)c3CN1CC2` [CRDL, 14R,13S-(+)-corydaline] the food intake (first week of treatment) was “decreased” and the food intake (second week through the rest of treatment) was “maintained at the level similar to the control group”.
